Values quoted from earlier work, collected in patent publication US6458382B1, “Nucleic acid transfer complexes” (Mirus Corporation, priority 1999, dated 2002).
At least one structure is not confirmed: it was looked up by name or label, or the drawing left a doubt.

Details: cited from earlier work

In the case of CCCCCC(=O)OC[C@H](COP(=O)(O)OCC[N+](C)(C)C)OC(=O)CCCCC [dicaproylphosphatidylcholine], the “critical micelle concentration (CMC)” value is given as “approximately 1×10^−2 M”.
